The results in this text go back to publication PMC6738495.

These are yes or no findings as the source states them, for the method shown. Binding seen in cells or lysates may run through a third protein. These calls come from enrichment with a bait or labelling near it, and not all partners need be listed.

The test concerns the target mouse PrP (MoPrP) (mouse (endogenous in C57Bl/6 brain)) (UniProt P04925). Put plainly: cross-linking + affinity purification with mass spectrometry.

B1: ZIP6 (protein, UniProt Q8C145 21-765)
chain: LHELQSTAAFSQTTEKINSNWEPGVNVDLAVTMQRHHLQQLFYRYGENDSLSVEGFRKLLQNIGIDKIKRVHIHHDHEHHADHEHHSDHEHHSDHEHHSDHEHHSDHEHHSDHEHHSHRSHTVAGKNNRKAFCPDLDSDNSGKNPRTSLGKGSRPAEHMNGRRNIKESASSSEVTSAVYNAVSEGTRFVETIETPKPGRRTKDVNPSTPPSITEKSRVGRLSRLARKKSNESVSEPRKSFMYSRNTNDNIQECFNTTKLLTSHGMSIQALLNATEFNYLCPAIINQIDARACLIHTASEKKAEIPPKTYSLQIAWLGGFIAISIISFLSLLGVILVPLMNRVFFKFLLSFLVALAVGTLSGDALLHLLPHSHASHQHSHSHEEPAMEMKRGPLFSHLSAQNIEESSYFDSTWKGLTALGGLYFMFLVEHVLTLIKQFKDKKKKNQKKPENDEDVESKKQLSKYDSQLSSNEEKVDPGERPESYLRADSQEPSPFDSQQPTMLEEEEVMIAHAHPQEVYNEYVPRGCKNKCHSHFHDTLGQSDDLIHHHHDYHHILHHHHHQNHHPHSHSQRYSREELKDAGIATLAWMVIMGDGLHNFSDGLAIGAAFTEGLSSGLSTSVAVFCHELPHELGDFAVLLKAGMTVKQAVLYNALSAMLAYLGMATGIFIGHYAENVSMWIFALTAGLFMYVALVDMVPEMLHNDASDHGCSRWGYFFLQNAGILLGFGIMLLISIFEHKIVFRINF
Take B1: the binding result is listed as “binds”.

B2: ZIP10 (protein, UniProt Q6P5F6 26-833)
chain: HEDHDHGPEELHRHHRGMTESESSKFSVQDAENEKKYYIEKLFDRYGENGRLSFFGLEKLLTNLGLGEIKVVEINHEDLGHDHVSHLDILAVQEGKHFHSHTHQHFHNHLNAENHTTTSVTSKRNHKCDPEKEAAELPIKADDKHLHDRNHRFHHRHRLHHHLDHNTTRHVHNDSVAHSEHGEPGHSPSPETNKTQEQSEVKSVKVRRKEKGKRKKENSEVNTPGFLPNHDHSEQYEHNRVHKLDRVHSPGHPHAHLPEHSGHELGHGHQELDPDNEGELRHTRKREAPHVRKSAIYSTPSHKDQSEDDRQHECLNVTQLLKHFGLGPNSPISPDLFTYLCPALLYQIDSRLCIEHFDKLLVEDLNKDKTLVPEDKTNIGASAWICGIISITVISLLSLLGVILVPIINQGCFKFLLTFLVALAVGTMSGDALLHLLPHSQGGHDHSHQHTHGHGHSHGHESKEFLEEYDAVLKGLVALGGIYLLFIIEHCIRMFKHYKQQRGKQKWFMKQSTEESTIGRKLSDHKLNSTPDADWLQLKPLAGTDDSVVSEDRLNETELTDLEAQQESPPKNYLGVEEEKIMDHSHSDGLHTIHEHEVHVTSHNHHDEDKAVLRKHSHQWHHRHAHHSHGPCHSGSDLKETGIANIAWMVIMGDGIHNFSDGLAIGAAFSAGLTGGISTSIAVFCHELPHELGDFAVLLKAGMTVKQAIVYNLLSAMMAYIGMLIGTAVGQYANNITLWIFAITAGMFLYVALVDMLPEMLHGDGDHEEHGFCPVGQFILQNLGLLFGFAIMLVIALYEDKIVFDIQF
In the case of B2, the binding result was “binds”.
